The results in this text go back to publication PMC12292233, “Effects of 2-Hydroxypropyl-β-Cyclodextrin on the Antioxidant Efficiency of Some Gallic Acid Derivatives in Soybean Oil-in-Water Emulsions” (Antioxidants, 2025).

The nature of data set [1]: Inclusion constant with HPCD by Higuchi and Connors phase solubility method. Format: physicochemical. Conditions: no Tween 20, 1:1 complex.
The nature of data set [2]: Inclusion constant with HPCD by steady-state fluorescence (Benesi-Hildebrand). In kind it is physicochemical.

SMILES strings stand for the structures. “And” between values parts separate entries of the source, which are not always exact repeats. Equal entries are not always repeated.

`CCCCOC(=O)c1cc(O)c(O)c(O)c1` [BG, butyl gallate]: the “Kc, inclusion constant with HPCD” value in data set [1] stood at 783 ± 35 M⁻¹.
Consider `CCCCCCCCOC(=O)c1cc(O)c(O)c(O)c1` [OG, octyl gallate], for which the “Kc, inclusion constant with HPCD” value in data set [2] ([Tween 20] = 3.9 × 10^−3 M, citric buffer 0.04 M pH 3.5, T = 25 °C) was 20 ± 5 M⁻¹; in data set [2] (no Tween 20, citric buffer 0.04 M pH 3.5, T = 25 °C, n = 1) it was 1946 M⁻¹ and 1946 ± 85 M⁻¹.
`CCCOC(=O)c1cc(O)c(O)c(O)c1` [PG, Propyl gallate]: the “Kc, inclusion constant with HPCD” value in data set [1] was 383 M⁻¹ and 383 ± 12 M⁻¹.
